# PubChem BioAssay AID445 (National Center for Advancing Translational Sciences (NCATS), 2006)
# This is one part of the list. The main result of the screen is listed elsewhere. These columns were measured beside it and carry no call. Most of these compounds were active or inconclusive in the main read-out, so they are no random draw. Words in brackets tell the shape of the fitted curve; partial curves, single points and poor fits give uncertain potencies.
# Test: IkB Signaling
# Details: ABC-DLBCL IkBa-CBG/CBR dual luciferase ratio (green luciferase fused to IkBa over red control in OCI-Ly3 lymphoma cells), 4 h
# How it was run: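 Luminescence ratio of IκBα-fused green versus native red beetle luciferase in OCI-Ly3 cells, 4 h post-doxycycline with compound; red signal alone, scaled from basal (0%) to zero light (-100%), flagged nonspecific or cytotoxic effects.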
# [1] = measured here: control luc red channel unless noted
smiles,measurement,setting,value
CCOC(=O)c1c(NC(=O)/C=C/c2ccc(OCC)cc2)sc(C)c1C,AC50,[1],"1 µM [rising, full curve]"
COC(=O)C(NC(=O)CC(C)C)(Nc1nc2c(s1)CCCC2)C(F)(F)F (stereo not drawn),AC50,[1],"39.8 µM [falling, partial curve]"
c1cn(CCCNc2ncnc3nc[nH]c23)cn1,AC50,[1],"0.00251 µM [falling, full curve]"
COc1ccc(NC(=O)CSc2nc(-c3cccs3)cc(C(F)(F)F)n2)cc1OC,AC50,[1],"1 µM [rising, full curve]"
Cc1ccc2c(c1)cc(CN(Cc1ccco1)C(=O)COc1ccccc1)c1nnnn12,AC50,[1],"25.1 µM [falling, partial curve, poor fit]"
Cc1ccc(-c2nc3c4ccccc4n(CC(=O)N4CCN(c5ccccc5F)CC4)c(=O)n3n2)cc1,AC50,[1],"5.01 µM [rising, single point]"
Cc1ccc(NC(=O)CN(C)S(=O)(=O)c2ccc3c(c2)n(C)c(=O)c(=O)n3C)cc1C,AC50,[1],"20 µM [falling, single point]"
Cc1ccc(-n2nnnc2CNC(=O)C(C)(C)C)cc1C,AC50,[1],"0.00501 µM [falling, full curve, poor fit]"
Cc1nc(SC(C)C(=O)Nc2ccccc2C)cc(-c2ccccc2)n1 (stereo not drawn),AC50,[1],"20 µM [falling, partial curve]"
CCn1c(COc2cccc(C)c2)nnc1SCC(=O)CC(=O)Nc1ccccc1OC,AC50,[1],"25.1 µM [falling, partial curve]"
COc1ccc(NS(=O)(=O)c2ccc(OC)c3ccccc23)cn1,AC50,[1],"15.8 µM [falling, partial curve]"
Cc1ccc(-c2noc(C(C)NS(=O)(=O)c3ccc(C)cc3)n2)cc1 (stereo not drawn),AC50,[1],"6.31 µM [falling, single point]"
O=C(Nc1cccc(Cl)c1)c1cnc2sc(N3CCCC3)nn2c1=O,AC50,[1],"0.251 µM [falling, full curve]"
Cc1ccc(C)c(CN2CCCN(Cc3ccc(F)cc3)S2(=O)=O)c1,AC50,[1],"25.1 µM [falling, single point]"
COc1cc(CNC(=O)c2ccc(Cn3nc(C)c(Cl)c3C)o2)cc(OC)c1,AC50,[1],"15.8 µM [falling, partial curve]"
COc1ccc(S(=O)(=O)N2CCN(c3cc(-c4ccccc4)nc4ncnn34)CC2)cc1,AC50,[1],"10 µM [falling, partial curve]"
Cc1nc(-n2nc(C)c(Cc3ccccc3Cl)c2C)sc1C(=O)Nc1ccccc1F,AC50,[1],"1 µM [falling, partial curve]"
Cc1cc(C)nc(N(C#N)Cc2ccc(Br)cc2)n1,AC50,[1],"25.1 µM [falling, partial curve]"
CCOC(=O)Cn1c(=O)n(CC2CCCO2)c2nc(-c3ccc(C)cc3)nc(C(N)=O)c21 (stereo not drawn),AC50,[1],"39.8 µM [falling, single point]"
COc1ccccc1NC(=O)C(=O)NCC(c1ccc2c(c1)OCO2)N1CCOCC1 (stereo not drawn),AC50,[1],"6.31 µM [falling, partial curve]"
Cc1onc(-c2ccccc2Cl)c1C(=O)Nc1cccc2cccnc12,AC50,[1],"3.98 µM [falling, full curve, poor fit]"
COc1ccc(Cl)cc1NC(=O)Cc1ccc(NC(=O)N2CCCCc3ccccc32)cc1,AC50,[1],"31.6 µM [falling, single point]"
Cc1ccccc1OCc1nc2ccccc2c(=O)n1/N=C/c1ccco1,AC50,[1],"20 µM [falling, partial curve]"
Cc1ccc(CN2CCSc3ccc(C(=O)N4CCN(c5ccccc5)CC4)cc32)cc1,AC50,[1],"3.98 µM [falling, full curve]"
O=C(CC1N=C2c3ccccc3N=C(SCc3ccc(Cl)cc3)N2C1=O)NCc1cccs1 (stereo not drawn),AC50,[1],"12.6 µM [falling, partial curve]"
Cc1ccc(-n2c(Cc3ccccc3)nnc2SCc2nc(-c3cccs3)no2)cc1,AC50,[1],"31.6 µM [falling, partial curve]"
O=c1oc(-c2cccs2)nc2scc(-c3cccs3)c12,AC50,[1],"3.98 µM [falling, partial curve]"
Cc1ccc(C)c(N2CCN(C(=O)c3ccc(NC(=O)c4nsc5ccccc45)cc3)CC2)c1,AC50,[1],"0.794 µM [falling, full curve]"
COc1cc(C(=O)Oc2c(Sc3ccccc3)c(C)nn2-c2ccccc2)cc(OC)c1OC,AC50,[1],"7.94 µM [falling, full curve]"
Cc1ccc(/C=C/c2onc(C)c2S(=O)(=O)N2CCC(C(=O)Nc3ccc(C)c(N(C)C)c3)CC2)cc1,AC50,[1],"0.794 µM [falling, full curve, poor fit]"
Cc1ccc(CNC(=O)CCCCCn2c(=O)[nH]c3ccccc3c2=O)cc1,AC50,[1],"0.398 µM [falling, full curve, poor fit]"
Cc1nn(-c2ccccc2)c(OC(=O)C(C)C)c1Sc1ccc(Cl)cc1,AC50,[1],"3.16 µM [falling, partial curve]"
CC1CCCN(CCCNC(=O)c2ccc3c(c2)N(Cc2ccccc2F)C(=O)c2ccccc2S3(=O)=O)C1 (stereo not drawn),AC50,[1],"31.6 µM [falling, single point]"
Oc1c(CN2CCCCC2)cc(Br)c2cccnc12,AC50,measured here: IkB-luc green channel,"12.6 µM [rising, partial curve]"
same,AC50,measured here: control luc red channel,"12.6 µM [falling, partial curve]"
Cc1ccccc1-c1nc(CN2CCC(C(=O)NCc3ccccc3Cl)CC2)c(C)o1,AC50,[1],"20 µM [falling, partial curve]"
CC(C)(C)c1ccc(NC(=O)C2CCCN(c3cnccn3)C2)cc1 (stereo not drawn),AC50,[1],"25.1 µM [falling, partial curve]"
CCOc1ccc(N2CC(NC(=O)CCc3ccccc3)CC2=O)cc1 (stereo not drawn),AC50,[1],"3.98 µM [falling, single point]"
CCn1c(C)c(C2N3CC4(C)CN2CC(C)(C3)C4=O)c2ccccc21 (stereo not drawn),AC50,[1],"39.8 µM [falling, single point]"
O=C(CC(Sc1ccccc1)c1cccs1)c1ccco1 (stereo not drawn),AC50,[1],"39.8 µM [rising, single point] [measured here: IkB-luc green channel]"
CCC(OC(=O)c1cc2sccc2n1C)C(=O)NCC1CCCO1 (stereo not drawn),AC50,[1],"39.8 µM [falling, single point]"
CC(=O)c1cccc(-n2c(=O)c3c4c(sc3n(CC(=O)c3ccccc3)c2=O)CN(C(C)=O)CC4)c1,AC50,[1],"3.98 µM [rising, single point]"
Cc1nc(C)c(-c2ccc(SCC(=O)Nc3ccc(Br)cc3)nn2)s1,AC50,[1],"0.316 µM [falling, partial curve, poor fit]"
Cc1ccc2[nH]c3c(c2c1)CN(C(=O)CN1CCN(Cc2ccc4c(c2)OCO4)CC1)CC3,AC50,[1],"12.6 µM [falling, partial curve]"
CN(c1ccc(C(=O)Nc2nccs2)cc1)S(=O)(=O)c1ccccc1,AC50,[1],"15.8 µM [falling, partial curve]"
CC(=O)c1cc2c(cc1N/C(=N/S(=O)(=O)c1ccc(Cl)cc1)c1ccc(F)cc1)OCO2,AC50,[1],"5.01 µM [rising, partial curve]"
CCOC(=O)C1CCCN(C(=O)c2cc3c(=O)[nH]c4ccc(C)cc4c3s2)C1 (stereo not drawn),AC50,[1],"39.8 µM [falling, single point]"
CN(Cc1ccccc1)S(=O)(=O)c1cc(Br)cc2c1N(C(=O)C1CC1)CC2,AC50,[1],"3.98 µM [falling, full curve]"
CCN(CCCNC(=O)CN1N=C(c2ccc(OC)cc2)CCC1=O)c1cccc(C)c1,AC50,[1],"39.8 µM [falling, single point]"
Cc1cccc(N2CCN(C(=O)c3cn(CC(C)C)c(=O)c4c3c3ccccc3n4C)CC2)c1C,AC50,[1],"20 µM [falling, partial curve]"
Cc1ccc(-c2noc(CNC(=O)c3ccc(Br)o3)n2)cc1,AC50,[1],"15.8 µM [falling, partial curve, poor fit]"
CC(=O)c1cccc(NC(=O)c2cc(-c3ccc(Cl)s3)nc3ccccc23)c1,AC50,[1],"2 µM [falling, full curve, poor fit]"
COc1ccc(NC(=O)CC2C(=O)N(c3cccc(C)c3)C(=O)N2C2CCCCC2)cc1 (stereo not drawn),AC50,[1],"39.8 µM [falling, single point]"
c1nc(N2CCOCC2)c2c3c(sc2n1)CCCC3,AC50,[1],"15.8 µM [falling, partial curve]"
COc1cccc(C(=O)Nc2ccc(-c3cc(C(F)(F)F)nn3-c3ccccc3)cc2)c1,AC50,[1],"20 µM [falling, partial curve]"
CC(C)N(C(=O)CSc1nnc(-c2cc3ccccc3cc2O)n1Cc1ccco1)C(C)C,AC50,[1],"15.8 µM [falling, partial curve]"
CCOc1ccccc1CNS(=O)(=O)c1ccc2[nH]c(=O)ccc2c1,AC50,[1],"39.8 µM [falling, single point]"
Cc1ccc(C)c(CN2C(=O)N(c3cc(Cl)ccc3C)S(=O)(=O)c3ccccc32)c1,AC50,[1],"0.316 µM [falling, full curve]"
O=C(Nc1nc2ccccc2n1CCN1CCOCC1)c1cn(-c2ccccc2)nc1-c1ccccc1,AC50,[1],"10 µM [falling, partial curve]"
COc1ccccc1N1CCN(C(=O)Cn2cnc3onc(-c4ccc(F)cc4)c3c2=O)CC1,AC50,[1],"0.0398 µM [falling, full curve, poor fit]"
O=C(c1ccc2c(=O)n(CCc3ccccc3)c(=O)[nH]c2c1)N1CCN(c2ccc(F)cc2)CC1,AC50,[1],"5.01 µM [falling, partial curve]"
COc1cccc(N2CC(NC(=O)c3ccco3)CC2=O)c1 (stereo not drawn),AC50,[1],"6.31 µM [rising, single point]"
CCOC(=O)CSc1nc2sc3c(c2c(=O)[nH]1)CCCC3,AC50,[1],"31.6 µM [rising, partial curve] [measured here: IkB-luc green channel]"

# Some of the entries so far, with bars between the fields:
smiles | measurement | setting | value
COC(=O)C(NC(=O)CC(C)C)(Nc1nc2c(s1)CCCC2)C(F)(F)F (stereo not drawn) | AC50 | [1] | 39.8 µM [falling, partial curve]
c1cn(CCCNc2ncnc3nc[nH]c23)cn1 | AC50 | [1] | 0.00251 µM [falling, full curve]
Cc1ccc(-n2nnnc2CNC(=O)C(C)(C)C)cc1C | AC50 | [1] | 0.00501 µM [falling, full curve, poor fit]
Cc1ccc(-c2noc(C(C)NS(=O)(=O)c3ccc(C)cc3)n2)cc1 (stereo not drawn) | AC50 | [1] | 6.31 µM [falling, single point]
O=C(Nc1cccc(Cl)c1)c1cnc2sc(N3CCCC3)nn2c1=O | AC50 | [1] | 0.251 µM [falling, full curve]
COc1ccc(S(=O)(=O)N2CCN(c3cc(-c4ccccc4)nc4ncnn34)CC2)cc1 | AC50 | [1] | 10 µM [falling, partial curve]
Cc1onc(-c2ccccc2Cl)c1C(=O)Nc1cccc2cccnc12 | AC50 | [1] | 3.98 µM [falling, full curve, poor fit]
O=C(CC(Sc1ccccc1)c1cccs1)c1ccco1 (stereo not drawn) | AC50 | [1] | 39.8 µM [rising, single point] [measured here: IkB-luc green channel]
CC(=O)c1cccc(-n2c(=O)c3c4c(sc3n(CC(=O)c3ccccc3)c2=O)CN(C(C)=O)CC4)c1 | AC50 | [1] | 3.98 µM [rising, single point]
CC(=O)c1cc2c(cc1N/C(=N/S(=O)(=O)c1ccc(Cl)cc1)c1ccc(F)cc1)OCO2 | AC50 | [1] | 5.01 µM [rising, partial curve]
CCOC(=O)C1CCCN(C(=O)c2cc3c(=O)[nH]c4ccc(C)cc4c3s2)C1 (stereo not drawn) | AC50 | [1] | 39.8 µM [falling, single point]
c1nc(N2CCOCC2)c2c3c(sc2n1)CCCC3 | AC50 | [1] | 15.8 µM [falling, partial curve]
O=C(c1ccc2c(=O)n(CCc3ccccc3)c(=O)[nH]c2c1)N1CCN(c2ccc(F)cc2)CC1 | AC50 | [1] | 5.01 µM [falling, partial curve]
COc1cccc(N2CC(NC(=O)c3ccco3)CC2=O)c1 (stereo not drawn) | AC50 | [1] | 6.31 µM [rising, single point]
